Assay results published in PubChem BioAssay AID2685 (National Center for Advancing Translational Sciences (NCATS), 2010).
Hit rate of the full screen: of about 320,000 compounds, about 2,100 (0.66%) were called active. Inconclusive results, whose numbers are uncertain, are shown with a selection of clear calls. Calls come from the whole dose curve; as a rule, active = well fitted inhibition curve with a large enough effect in the signal ratio, with a control signal flat (not every such curve was filed as active); inconclusive = small, poorly fitted or top-dose-only effect, or effect the other way, or a change in a side signal; inactive = flat fitted curve, though single readings scatter; the % refers to the signal ratio. Potencies of inconclusive entries are doubtful fits and often do not repeat.

Assay: qHTS Assay for Lipid Storage Modulators in Drosophila S3 Cells
Conditions: BODIPY lipid droplet fluorescence, 18-24 h, cells fed with added oleic acid; lipid storage change, negative = inhibition: at 46.1 µM (top of the series) unless noted
Method in brief: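 Drosophila S3 cells got compounds at several concentrations plus oleic acid (400 uM solution). Laser-scanning cytometry with 488 nm excitation read lipid droplets at 500-530 nm and cells at 575-640 nm. Percent activity was relative to 20 uM Triacsin C.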
% is set by controls: 0 for no effect and ±100 for the full control effect; potency is the fitted concentration of half-maximal effect.

Lipid storage change, negative = inhibition, inactive:
COc1ccc([C@H]2CC(=O)C=C(c3ccc4c(c3)OCO4)C2)cc1 -9.07%
Cc1ccc(S(=O)(=O)N2CCOCC2)cc1NC(=O)COC(=O)CCC(=O)c1ccc(F)cc1 17%

Lipid storage change, negative = inhibition, inconclusive:
CCc1ccc(NC(=O)CN(c2ccc(OC)cc2)S(=O)(=O)c2c(C)[nH]c(=O)[nH]c2=O)cc1 50.3%
COCCn1c(SCCN2CCCCC2)nc2ccccc2c1=O 46.9%
COc1cccc(CNCCO)c1OCc1ccccc1 13.4%
Oc1c(-c2cc(-c3ccco3)[nH]n2)ccc2ccccc12 11.7%
O=C(CSc1nnc(C2COc3ccccc3O2)o1)N1CCOCC1 (stereo not given) -10.7%
O=S(=O)(c1ccccc1)N1CCN(C(=S)NCCc2ccccc2)CC1 112%
COc1cc(OC)cc(C(=O)O/N=C(\N)c2cccc(C)c2)c1 22.8%
O=C(Cn1ccc2ccccc2c1=O)NCCC(=O)N1CCN(c2cccc(Cl)c2)CC1 258%
CCCN(CCC)CCNC(=O)C1CCCN(S(=O)(=O)c2ccc3c(c2)oc(=O)n3C)C1 (stereo not given) -23%
Clc1ccccc1-c1nnc2sc(-c3ccc(Br)o3)nn12 -3.35%
CC(NC(=O)CCCc1c[nH]c2ccccc12)c1ccc(F)cc1 (stereo not given) -100%
COc1ccc(CCC(=O)NCCOc2ccc(C)cc2)cc1 12.4%
CN(C)c1ccc(N=Nc2ccccc2C(=O)OCC(=O)N2CCCCCC2)cc1 7.25%
Cc1ccc(N2CC(C(=O)Nc3cccnc3)CC2=O)cc1C (stereo not given) 71.1%
CC(C)n1c(Nn2cnnc2)nc2ccccc21 15.6%
COc1ccc(OC)c(CN(CCCN2CCOCC2)S(=O)(=O)c2ccc(NC(C)=O)cc2)c1 21.7%
O=S(=O)(c1ccc(F)c(F)c1)N1CCN(S(=O)(=O)c2cccs2)CC1 0.522%
Cc1ccc(S(=O)(=O)CCC(=O)OCc2nc(N)nc(Nc3ccccc3C)n2)cc1 10.9%
c1ccc2oc(SCc3nc4ccccc4s3)nc2c1 12.6%
COc1ccc(CCNS(=O)(=O)c2ccc3c(c2)NC(=O)C(C)S3)cc1OC (stereo not given) -16.7%
CCOC(=O)C(=O)NC(C)c1ccccc1 (stereo not given) 12.8%
Cc1cc(=O)[nH]c(SCCOc2ccc3c(c2)CCC3)n1 -8.31%
CCOCC(=O)Nc1nnc(Cc2ccc(OC)c(OC)c2)s1 24.8%
COc1ccc(NC2c3ccccc3C(=O)N2Cc2ccc3c(c2)OCO3)cc1 (stereo not given) 14.4%
O=S(=O)(NCC1CCCO1)c1ccccc1F (stereo not given) -9.33%
O=C(/C=C/c1ccc(F)cc1)N1CCCc2ccccc21 -6.84%
O=C(NCC(=O)N(c1ccc(F)cc1)C(C(=O)NCC1CCCO1)c1ccccc1)c1ccco1 (stereo not given) 62.4%
CSc1ncc(Cl)c(C(=O)Nc2ccc(NC(C)=O)cc2)n1 -33.3% [at 0.369 µM]
CCOc1ccc(N2CC(NC(=O)c3cccc4ccccc34)CC2=O)cc1 (stereo not given) 20.9%
N#Cc1ccc(COC(=O)c2cccnc2Cl)cc1 23.3%
C=CCOC(=O)/C(=C\c1ccccc1)NC(=O)c1ccc(C)cc1 27.5%
COc1cc(CNn2c(C)n[nH]c2=S)cc(Br)c1OCc1ccc(F)cc1 0.308%
Cc1ccc(C(=O)/C=C/C(=O)c2ccc(C)cc2)cc1 -18.7%
O=C(CCCn1c(=O)c2ccccc2n(Cc2cccc(F)c2)c1=O)NC1CCN(Cc2ccccc2)CC1 -8.23%
CCCCc1n[nH]c2c1/C(=N/O)CC(c1ccccc1)C2 (stereo not given) -23.7%
Cc1cc(C)c2sc(N(CCCN(C)C)C(=O)c3ccc(Br)s3)nc2c1 17.2%
CCOC(=O)O[C@]1(C(=O)COC(=O)CC)CC[C@H]2[C@@H]3CCC4=CC(=O)C=C[C@]4(C)[C@H]3[C@@H](O)C[C@@]21C 13.5%
O=C(NCc1cccnc1)c1ccc(Br)s1 10.3%
CCOC(=O)C1(Cc2ccc(Cl)cc2)CCN(C(=O)c2cnc(C)cn2)CC1 19.7%
CC(C)OC(=O)CC1C(=O)NCCN1C(=S)NC(=O)c1cccs1 (stereo not given) -4.51%
CCOc1ccc(C2C(C(=O)O)CCC(=O)N2C2CCCCC2)cc1 (stereo not given) 8.27%
COc1ccccc1C(=O)NCc1ccncc1 10.5%
c1ccc2nc3c(nc2c1)[nH]c1ccccc13 68.6%
N#C[C@]1(S(=O)(=O)c2ccccc2)C[C@@H]2ON=C(c3cccc(Br)c3)[C@@H]2C1 -36.4%
N#C/C(=C\c1cn(CCOc2ccccc2)c2ccccc12)C(=O)NCc1cccs1 18.9%
Cn1c(C(=O)NCCN2CCN(Cc3ccccc3)CC2)cc2c(=O)n(C)c3ccccc3c21 -12.7%
CCOC(=O)COc1cc(-n2c(=S)[nH]c3ccccc3c2=O)c(Cl)cc1Cl -13.2%

Some of these compounds in order of molar mass, largest number first.
Lipid storage change, negative = inhibition, inconclusive:
CCOC(=O)O[C@]1(C(=O)COC(=O)CC)CC[C@H]2[C@@H]3CCC4=CC(=O)C=C[C@]4(C)[C@H]3[C@@H](O)C[C@@]21C 13.5%
N#C[C@]1(S(=O)(=O)c2ccccc2)C[C@@H]2ON=C(c3cccc(Br)c3)[C@@H]2C1 -36.4%
CC(C)OC(=O)CC1C(=O)NCCN1C(=S)NC(=O)c1cccs1 (stereo not given) -4.51%
C=CCOC(=O)/C(=C\c1ccccc1)NC(=O)c1ccc(C)cc1 27.5%
COc1cccc(CNCCO)c1OCc1ccccc1 13.4%
O=S(=O)(NCC1CCCO1)c1ccccc1F (stereo not given) -9.33%
c1ccc2nc3c(nc2c1)[nH]c1ccccc13 68.6%

Following part:

Potency, active:
Cc1ccccc1NC(=O)c1cccc(C(=O)Nc2ccccc2C)n1 8.2 µM

Potency, inconclusive:
Cc1cccc(N2CCCn3c2nc2c3c(=O)n(CC(=O)OCc3ccccc3)c(=O)n2C)c1 1.3 µM [activator, full curve]
Cc1cc(C)n(-c2cc(N3CCN(S(=O)(=O)c4ccc(Cl)cc4)CC3)ccc2[N+](=O)[O-])n1 29.1 µM [falling, single point]
Cc1ccccc1C(=O)NC1CCN(Cc2nnnn2Cc2ccc(F)cc2)CC1 29.1 µM [falling, single point]
CC#CC[N+](C)(C)CCCCCCCCCC 0.366 µM [falling, full curve, poor fit]
Cc1ccccc1OCCCCCn1ccnc1 1.64 µM [activator, partial curve]
COC(=O)c1ccc(OCC(O)CN(CCO)CCO)cc1 (stereo not given) 1.84 µM [falling, full curve]
COc1ccc(NC(=O)C2CCCN(S(=O)(=O)c3ccccc3)C2)c(OC)c1 (stereo not given) 29.1 µM [activator, single point]
COc1ccc(C(=O)Nc2ccc(S(=O)(=O)NC(C)(C)C)cc2)cc1[N+](=O)[O-] 23.1 µM [falling, single point]
O=C(c1ccccc1)N1CCN(c2ccc(NCc3ccc4c(c3)OCO4)cc2)CC1 2.31 µM [rising, single point]
COc1ccccc1Nc1nnc(SCC(=O)Nc2cc(C)on2)s1 0.103 µM [falling, full curve, poor fit]
Cc1ccc2c(c1)N(CC(=O)NCc1ccco1)C(=O)C(C(C)C)O2 (stereo not given) 29.1 µM [falling, partial curve, poor fit]
CCS(=O)(=O)N1CCN(CC(=O)NC2CCCCC2)CC1 0.517 µM [falling, full curve, poor fit]
COCCNC(=O)Cn1cnc2sc(C)c(S(=O)(=O)N3CCC(C)CC3)c2c1=O 0.58 µM [falling, full curve, poor fit]
Nc1nnc(CC(=O)N/N=C/c2cc([N+](=O)[O-])cc(Br)c2O)s1 18.4 µM [falling, single point]
COc1ccc(CNC(=O)CN2C(=O)NC(Cc3ccccc3)(c3ccccc3)C2=O)cc1OC (stereo not given) 8.2 µM [falling, partial curve]
N#Cc1ccc(CN2CCN(C(=O)c3cc(Cl)c4c(c3)OCCO4)CC2)cc1 0.461 µM [activator, full curve]
COc1ccc(C(=O)N=C2SC3CS(=O)(=O)CC3N2c2ccc(N(C)C)cc2)cc1OC (stereo not given) 29.1 µM [activator, single point]
Cc1cccc(OCCCC(=O)Nc2nc3ccccc3[nH]2)c1 2.59 µM [rising, full curve]
COc1cccc(CNC(=O)COC(=O)CN2C(=O)NC3(CCCCC3C)C2=O)c1 (stereo not given) 0.58 µM [activator, full curve]
CCOc1ccc(NS(=O)(=O)c2ccc(OCC(=O)NCc3ccncc3)cc2)cc1 0.82 µM [activator, full curve, poor fit]
O=C1N=C(N2CCc3ccccc3C2)S/C1=C\c1cccc(O)c1 23.1 µM [falling, partial curve, poor fit]
CCC(=O)N1CCc2cc(Br)cc(S(=O)(=O)N3CCC(C(=O)NCCCOC(C)C)CC3)c21 0.0046 µM [falling, full curve, poor fit]
COc1ccc(C(=O)NNC(=O)C23CC4CC(CC(C4)C2)C3)cc1OC 6.51 µM [falling, single point]
CCN(CC)c1ccc(C2C(C(=O)Nc3ccccn3)=C(C)NC3=C2C(=O)CC(C)(C)C3)cc1 (stereo not given) 6.51 µM [falling, single point]
O=C(c1cnn2ccccc12)N1CCc2ccccc21 0.231 µM [activator, full curve, poor fit]
